Measurements from US20160201132A1, “GENE EXPRESSION BIOMARKERS OF LAQUINIMOD RESPONSIVENESS” (Teva Pharmaceutical Industries Ltd., priority 2013, published 2016).
The source gives many values for each of these; only a part stands here.

System: PBMC of RRMS patients
Experiment: Gene expression microarray analysis (HG-U133A-2) of PBMC from RRMS patients treated with LAQ, ancillary study to ALLEGRO
Assay type: in vivo, human
Source text: The goal of this ancillary study was to characterize gene expression changes and corresponding biological mechanisms induced in PBMC of RRMS patients by LAQ treatment. According to ALLEGRO clinical trial inclusion criteria, 25 patients were randomly assigned to receive LAQ (n=13, age 38.8±2.3 years, female/male ratio: 8/5) or placebo (n=12, age 37.2±3.4 years, female/male ratio: 8/4).
Peripheral blood samples were obtained from RRMS patients at baseline before start of LAQ treatment or placebo, after 0, 1, 6 and 24 month of treatment (visit 0, 1, 6 and 7 according to ALLEGRO clinical trial protocol correspondently) for gene microarray analysis.
Briefly, 1) Peripheral blood mononuclear cells (PBMC) were obtained from RRMS patients that participated in ALLEGRO and were treated daily with 0.6 mg LAQ or placebo. PBMC were subjected for gene expression analysis (HU-133A-2-Affymatrix arrays) at baseline and at 1 and 6 months of LAQ treatment; 2) Data was analyzed by Partek Genomics Solution software. Most informative genes (MIGs) were defined as those that differentiated between groups with p<0.01. Gene functional annotation, enrichment and pathway analysis were performed by Ingenuity software. For each time point, genes that changed in placebo group were excluded from further analysis; and 3) Verification of LAQ related mechanism was performed by Western blot.
PBMC were extracted from 15 ml peripheral blood, separated by Ficoll-Hypaque gradient. Total RNA was extracted using both Trizol (Invitrogen, USA) and Phase-Lock-Gel columns (Eppendorf, Germany) including a DNase digestion step. RNA integrity was assessed by RNA Experion automated electrophoresis system (Bio-Rad Laboratories, Hercules, Calif.).
Probe synthesis using 3 μg total RNA, hybridization, detection, and scanning was performed according to the standard Affymetrix, Inc. USA protocols; cDNA was synthesized using the Two-Cycle cDNA Synthesis Kit (Affymetrix, Inc., USA), and in-vitro transcription performed with the GeneChip IVT Labeling Kit (Affymetrix, Inc., USA). The biotin-labeled IVT-RNA was hybridized to HG-U133A-2 arrays containing 18,400 gene transcripts, each corresponding to 14,500 well-annotated human genes, washed in a GeneChip Fluidics Station 450 (Hewlett Packard, USA, GeneArray-™ scanner G2500A) and scanned according to the manufacturer's protocol (Affymetrix, Inc., USA).
Data analysis was performed on Partek Genomics Solution software (www.partek.com; Partek Incorporated, St. Louis, Mo.). Expression values were computed from raw CEL files by applying the Robust Multi-Chip Average (RMA) background correction algorithm. RMA correction included: 1) values background correction; 2) quintile normalization; 3) log 2 transformation; and 4) median polish summarization. The ANOVA, Repeated Measures and correlation analysis implicated in Partek software ware applied to evaluate LAQ effects. Most informative genes MIGs were defined as those that differentiated between experimental groups with p<0.01. All p-values were calculated for False Discovery Rate (FDR) multiple test correction at p=0.05.
Additionally, significance of individual genes was tested by parametric T-test and non parametric Mann-Whitney test using Bootstrapping approach based on repeated permutations of the data with 5% FDR for multiple testing.
Gene functional annotation, enrichment, and pathway analyses to identify the leading biological pathways that operated under LAQ treatment were performed by Ingenuity Pathways Analysis software (www.ingenuity.com).
ANOVA analysis was used to compare PBMC gene expression after 1, 6 or 24 month of LAQ treatment with baseline gene expression.
For each time point inventors performed analysis source of variation in dataset. (FIG. 1). Age, gender and batch effects were considered as confounders regarding LAQ or Placebo related changes. For each time point genes associated with Placebo effect were evaluated and excluded from further analysis. […]

CCN(C(=O)c1c(O)c2c(Cl)cccc2n(C)c1=O)c1ccccc1 [LAQ, 5-chloro-N-ethyl-4-hydroxy-1-methyl-2-oxo-N-phenyl-1,2-dihydroquinoline-3-carboxamide]
Fold-Change (4.0 vs. 0.0) (gene HAS2, PBMC, six months of LAQ treatment): −1.117
Fold-Change (4.0 vs. 0.0) (gene HBBP1): −1.195
Fold-Change (4.0 vs. 0.0) (gene HCN2, six months of treatment): −1.155
Fold-Change (4.0 vs. 0.0) (gene HES2, six months of treatment): −1.158
Fold-Change (4.0 vs. 0.0) (gene HFE, after six months of LAQ): −1.266
Fold-Change (4.0 vs. 0.0) (gene HFE, six months of treatment): −1.151
Fold-Change (4.0 vs. 0.0) (gene HGC6.3, six months of treatment): −1.157
Fold-Change (4.0 vs. 0.0) (gene HGF, after six months of LAQ): −1.319
Fold-Change (4.0 vs. 0.0) (gene HIP1R /// LOC100294412, after six months of LAQ): −1.2794
Fold-Change (4.0 vs. 0.0) (gene HIST1H2BN, after six months of LAQ): −1.138
Fold-Change (4.0 vs. 0.0) (gene HMHB1, six months of treatment): −1.144
Fold-Change (4.0 vs. 0.0) (gene HNRNPC /// HNRNPCL1 /// LOC440563 /// LOC649330, after six months of LAQ): −1.24
Fold-Change (4.0 vs. 0.0) (gene HOMER2, after six months of LAQ): −1.14
Fold-Change (4.0 vs. 0.0) (gene HOXA10, after six months of LAQ): −1.303
Fold-Change (4.0 vs. 0.0) (gene HOXC10, six months of treatment): −1.153
Fold-Change (4.0 vs. 0.0) (gene HOXC13, after six months of LAQ): −1.228
Fold-Change (4.0 vs. 0.0) (gene HOXD13, PBMC, six months of LAQ treatment): −1.114
Fold-Change (4.0 vs. 0.0) (gene HPR, PBMC, six months of LAQ treatment): −1.118
Fold-Change (4.0 vs. 0.0) (gene HR44, PBMC, six months of LAQ treatment): −1.114
Fold-Change (4.0 vs. 0.0) (gene HRH1, after six months of LAQ): −1.235
Fold-Change (4.0 vs. 0.0) (gene HS3ST3A1, PBMC, six months of LAQ treatment): −1.107
Fold-Change (4.0 vs. 0.0) (gene HSD17B14): −1.193
Fold-Change (4.0 vs. 0.0) (gene HSF4, six months of treatment): −1.155
Fold-Change (4.0 vs. 0.0) (gene HTR2A, after six months of LAQ): −1.141
Fold-Change (4.0 vs. 0.0) (gene HTR4, after six months of LAQ): −1.2378
Fold-Change (4.0 vs. 0.0) (gene HTR5A, after six months of LAQ): −1.1409
Fold-Change (4.0 vs. 0.0) (gene HTR7): −1.188
Fold-Change (4.0 vs. 0.0) (gene HTR7P, after six months of LAQ): −1.135
Fold-Change (4.0 vs. 0.0) (gene IBSP): −1.187
Fold-Change (4.0 vs. 0.0) (gene ICHG1): −1.1939
Fold-Change (4.0 vs. 0.0) (gene IDUA): −1.194
Fold-Change (4.0 vs. 0.0) (gene IDUA, six months of treatment): −1.156
Fold-Change (4.0 vs. 0.0) (gene IFNA4, six months of treatment): −1.153
Fold-Change (4.0 vs. 0.0) (gene IFNA8, PBMC, six months of LAQ treatment): −1.1136
Fold-Change (4.0 vs. 0.0) (gene IFNA10, after six months of LAQ): −1.143
Fold-Change (4.0 vs. 0.0) (gene IFNW1, six months of treatment): −1.15
Fold-Change (4.0 vs. 0.0) (gene IGH@ /// IGHD /// IGHG1 /// IGHM /// LOC100289944 /// VSIG6): −1.191
Fold-Change (4.0 vs. 0.0) (gene IGHG1, six months of treatment): −1.155
Fold-Change (4.0 vs. 0.0) (gene IKBKG, six months of treatment): −1.149
Fold-Change (4.0 vs. 0.0) (gene IL5RA, after six months of LAQ): −1.13
Fold-Change (4.0 vs. 0.0) (gene IL9, after six months of LAQ): −1.128
Fold-Change (4.0 vs. 0.0) (gene IL11, six months of treatment): −1.157
Fold-Change (4.0 vs. 0.0) (gene IL12B, after six months of LAQ): −1.128
Fold-Change (4.0 vs. 0.0) (gene IL13RA2, six months of treatment): −1.147
Fold-Change (4.0 vs. 0.0) (gene IL20RA, after six months of LAQ): −1.124
Fold-Change (4.0 vs. 0.0) (gene INPP5J, after six months of LAQ): −1.129
Fold-Change (4.0 vs. 0.0) (gene IRS4, PBMC, six months of LAQ treatment): −1.121
Fold-Change (4.0 vs. 0.0) (gene ITGA2, six months of treatment): −1.155
Fold-Change (4.0 vs. 0.0) (gene ITGB3, after six months of LAQ): −1.237
Fold-Change (4.0 vs. 0.0) (gene ITGB5, after six months of LAQ): −1.5805
Fold-Change (4.0 vs. 0.0) (gene ITGB6, six months of treatment): −1.1581
Fold-Change (4.0 vs. 0.0) (gene ITGBL1, six months of treatment): −1.144
Fold-Change (4.0 vs. 0.0) (gene ITIH1, six months of treatment): −1.154
Fold-Change (4.0 vs. 0.0) (gene ITSN1, six months of treatment): −1.148
Fold-Change (4.0 vs. 0.0) (gene ITSN2, PBMC, six months of LAQ treatment): −1.118
Fold-Change (4.0 vs. 0.0) (gene ITSN2, after six months of LAQ): −1.129
Fold-Change (4.0 vs. 0.0) (gene KALRN, six months of treatment): −1.145
Fold-Change (4.0 vs. 0.0) (gene KANK2, after six months of LAQ): −1.238
Fold-Change (4.0 vs. 0.0) (gene KBTBD10, after six months of LAQ): −1.123
Fold-Change (4.0 vs. 0.0) (gene KCNJ5, after six months of LAQ): −1.139
Fold-Change (4.0 vs. 0.0) (gene KCNJ8, six months of treatment): −1.159
Fold-Change (4.0 vs. 0.0) (gene KCNJ12, after six months of LAQ): −1.259
Fold-Change (4.0 vs. 0.0) (gene KCNK2, six months of treatment): −1.159
Fold-Change (4.0 vs. 0.0) (gene KCNMA1, PBMC, six months of LAQ treatment): −1.122
Fold-Change (4.0 vs. 0.0) (gene KCNQ2, after six months of LAQ): −1.227
Fold-Change (4.0 vs. 0.0) (gene KCNS3, six months of treatment): −1.161
Fold-Change (4.0 vs. 0.0) (gene KCNV2, after six months of LAQ): −1.141
Fold-Change (4.0 vs. 0.0) (gene KDELR2, after six months of LAQ): −1.244
Fold-Change (4.0 vs. 0.0) (gene KDR, after six months of LAQ): −1.131
Fold-Change (4.0 vs. 0.0) (gene KIAA0195, after six months of LAQ): −1.282
Fold-Change (4.0 vs. 0.0) (gene KIAA0892, after six months of LAQ): −1.226
Fold-Change (4.0 vs. 0.0) (gene KIAA1199, six months of treatment): −1.146
Fold-Change (4.0 vs. 0.0) (gene KIAA1466, after six months of LAQ): −1.39
Fold-Change (4.0 vs. 0.0) (gene KIAA1644, six months of treatment): −1.144
Fold-Change (4.0 vs. 0.0) (gene KIF1A): −1.177
Fold-Change (4.0 vs. 0.0) (gene KIF5A, six months of treatment): −1.145
Fold-Change (4.0 vs. 0.0) (gene KIF18A, six months of treatment): −1.146
Fold-Change (4.0 vs. 0.0) (gene KIR2DL1 /// KIR2DL2 /// KIR2DL3 /// KIR2DL5A /// KIR2DL5B /// KIR2DS1 /// KIR2DS2 /// KIR2DS3 /// KIR2DS4 /// KIR2DS5 /// KIR3DL2 /// KIR3DL3 /// KIR3DP1 /// LOC727787): −1.1878
Fold-Change (4.0 vs. 0.0) (gene KRT17, after six months of LAQ): −1.122
Fold-Change (4.0 vs. 0.0) (gene KRT19, PBMC, six months of LAQ treatment): −1.115
Fold-Change (4.0 vs. 0.0) (gene KRT20, PBMC, six months of LAQ treatment): −1.104
Fold-Change (4.0 vs. 0.0) (gene KRTAP1-1, six months of treatment): −1.153
